101 compounds from PubChem BioAssay AID2685 (National Center for Advancing Translational Sciences (NCATS), 2010) can be followed below.

SMILES strings stand for the structures. This is one part of the list.

The experiment can be described thus: qHTS Assay for Lipid Storage Modulators in Drosophila S3 Cells.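 Also: cells counted by Cell Tracker Red CMTPX staining in the red channel.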 To be noted: BODIPY lipid droplet fluorescence, 18-24 h, measured here: cell count max response, cells fed with added oleic acid. Background: In qHTS, concentration-response curves come from the screen itself.
In the case of `O=P(Nc1nccs1)(c1ccccc1)c1ccccc1`, the cell number change is -11.7%.

As for `CC(C)C(=O)NC(Sc1ccccc1)C(Cl)(Cl)Cl` (stereo unspecified), the cell number change is -1.65%.

As for `CP(=O)(Nc1ccc2c(c1)OCCO2)Oc1ccccc1` (stereo unspecified), the cell number change is -4.74%.

In the case of `O=P(Nc1nc2ccccc2s1)(c1ccccc1)c1ccccc1`, the cell number change is -6.07%. In the case of `C[C@H]1OP(=O)(Oc2ccccc2)[C@H](O)[C@H](O)[C@H]1N=[N+]=[N-]` (stereo partly specified), the cell number change was -13%. Then `COc1ccc(OP(C)(=O)Nc2cccc(Br)c2)cc1` (stereo unspecified), with 8.59%. Then `Nc1ccc([As](=O)(O)c2ccc([N+](=O)[O-])cc2)cc1`, with 6.29%; and `C(Cc1nn[nH]n1)Cc1nn[nH]n1`, with 4.25%; and `O=[As](O)(c1ccccc1)c1ccc(O)cc1`, with 20.4%. Turning to `Cc1cc(-c2cccc3ccccc23)c(C)cn1.O=[N+]([O-])c1cc([N+](=O)[O-])c(O)c([N+](=O)[O-])c1`, the cell number change was -22.8%. The figure for `CCOC(=O)c1ccc(NP(C)(=O)Oc2ccc(F)cc2)cc1` (stereo unspecified) is -1.84%.

Turning to `O=C(NC1CCS(=O)(=O)C1)NP(=S)(Oc1ccccc1)Oc1ccccc1` (stereo unspecified), the cell number change came to 0%. On to `CCNC(=S)/N=C(\N)N[N+](=O)[O-]`, for which the cell number change was -7.54%. Take `c1ccc(-c2nn[nH]n2)c(-c2nn[nH]n2)c1`: the cell number change turned out to be 6.95%. As to `Cc1ccc(NP(=O)(Oc2cccc(C)c2)Oc2cccc(C)c2)nc1`, the cell number change is -5.15%. Regarding `CCOC(=O)NC(Sc1ccccc1)C(Cl)(Cl)Cl` (stereo unspecified), the cell number change was -11.3%. Then `CP(=O)(Nc1ccccc1)Oc1ccc(F)cc1` (stereo unspecified), with -18.3%. The figure for `Cc1ccccc1OP(=O)(Nc1ccccn1)Oc1ccccc1C` is -20.9%; for `CN(C)C(=O)Oc1noc2ccccc12` it is 3.1%. Regarding `COC(=O)c1cc2c(s1)N=C(c1ccccc1)N(C)P2(=O)N1CCOCC1` (stereo unspecified), the cell number change was -14%.

`CCC(=O)N1C2C3N(C(=O)CC)C1C1N(C(=O)CC)C(C(N1C(=O)CC)N3C(=O)CC)N2C(=O)CC`: the cell number change was 0%. Then `CCN(CC)CCCOC(=O)C(O)(c1ccccc1)C1CCCCC1` (stereo unspecified), with 11.7%; and `CC(C)(C)C(=O)NC(Sc1ccccc1)C(Cl)(Cl)Cl` (stereo unspecified), with -3.86%; and `CCOc1ccc(C2=NCC(CBr)S2)cc1` (stereo unspecified), with 0%. As to `COc1ccccc1OP(=O)(Nc1ccc(C)cn1)Oc1ccccc1OC`, the cell number change worked out at 10.9%. The figure for `Cc1ccc(OP(=O)(Nc2nccs2)Oc2ccc(C)cc2)cc1` is -2.11%; for `Clc1ccc(Cl)c(NC2=NCC(CBr)S2)c1` (stereo unspecified) it is -2.12%; for `CN1CCCC(OC(=O)C(c2ccccc2)c2ccccc2)C1` (stereo unspecified) it is 1.78%.

Turning to `COc1ccccc1OP(C)(=O)Nc1ccc(C)cc1C` (stereo unspecified), the cell number change amounted to 6.54%. The figure for `CCc1ccc(OP(C)(=O)O)cc1` is 5.35%; for `Cc1c(NP(C)(=O)Oc2ccc(C(C)C)cc2)c(=O)n(-c2ccccc2)n1C` (stereo unspecified) it is -15.5%. The figure for `Oc1ccccc1CNc1ccccn1` is 0%; for `Cc1cc(SC(NC(=O)c2ccc(F)cc2)C(Cl)(Cl)Cl)ncn1` (stereo unspecified) it is 1.82%; for `Cc1ccc(NP(=O)(Oc2ccccc2F)Oc2ccccc2F)nc1` it is 9.29%. The figure for `COc1ccccc1OP(C)(=O)Nc1ccc(C)c(C)c1` (stereo unspecified) is 0.279%. Regarding `COc1ccc(OP(C)(=O)Nc2ccccc2Br)cc1` (stereo unspecified), the cell number change was -9.08%. For the compound `O=C(O)c1ccccc1[As](=O)(O)O`, the cell number change came to 0%. The figure for `O=P(Nc1nc2ccc(Cl)cc2s1)(c1ccccc1)c1ccccc1` is 2.13%; for `CCN(N=Nc1nonc1N)c1nonc1N` it is 18%. In the case of `Nc1cccc2ccc([As](=O)(O)O)cc12`, the cell number change is -9.05%. The figure for `CP(=O)(OCCOc1ccccc1)OCCOc1ccccc1` is 0%. The figure for `Cc1nc2ccc3ccccc3c2o1.O=[N+]([O-])c1cc([N+](=O)[O-])c(O)c([N+](=O)[O-])c1` is 5.73%; for `O=[N+]([O-])c1cc([N+](=O)[O-])c(CCN2CCOCC2)c([N+](=O)[O-])c1` it is 19.4%.

Regarding `O=C(Nc1cc([As](=O)(O)O)ccc1O)c1ccccc1`, the cell number change worked out at 6.03%. `CC(=O)N1C2C3N(C(C)=O)C1C1N(C(C)=O)C(C(N1C(C)=O)N3C(C)=O)N2C(C)=O`: the cell number change was -19.3%.

On to `O=C(OCCCN1CCCC1)C(O)(c1ccccc1)C1CCCCC1` (stereo unspecified), for which the cell number change was found to be 6.19%. The figure for `O=[N+]([O-])c1cc([N+](=O)[O-])c(CCNc2ccccc2)c([N+](=O)[O-])c1` is 20.2%.

With `COc1ccc(C2=NCC(CBr)S2)cc1` (stereo unspecified), the cell number change was 6.92%. With `CC(C)=N/N=C(\N)N[N+](=O)[O-]`, the cell number change came out at 11.9%. Then `CC1CCN(C(=O)Oc2c(Cl)cc(Cl)c3cccnc23)CC1`, with -3.64%; and `COc1ccccc1OP(C)(=O)Nc1ccccc1Br` (stereo unspecified), with 6.74%.

As for `CP(=O)(Nc1ccc(Cl)cc1)Oc1ccc(F)cc1` (stereo unspecified), the cell number change worked out at 3.46%. Then `COP1(=S)c2c(C)nn(CCC#N)c2N=C(c2ccc(F)cc2)N1C` (stereo unspecified), with 0%. Then `CP(=O)(Nc1ccccn1)Oc1ccc(Cl)cc1` (stereo unspecified), with -7.09%; and `CCOC(=O)c1ccc(NP(C)(=O)Oc2ccc(OC)cc2)cc1` (stereo unspecified), with 6.73%; and `CCOP(C)(=S)SCC(=O)NC(C)C(=O)O` (stereo unspecified), with 7.18%.

With `Cc1cc(SC(NC(=O)c2ccccc2)C(Cl)(Cl)Cl)nc(C(C)C)n1` (stereo unspecified), the cell number change was -4.11%. The figure for `CCOC(=O)Nc1ccc([As](=O)(O)O)c(O)c1` is 10%. For `CP(=O)(Nc1ccccc1Br)Oc1ccccc1` (stereo unspecified), the cell number change amounted to 8.69%. The figure for `O=[N+]([O-])c1ccc(Nc2ccc(Oc3ccc([N+](=O)[O-])cc3[N+](=O)[O-])cc2)c([N+](=O)[O-])c1` is 4.47%. Then `Cc1cc(SC(NC=O)C(Cl)(Cl)Cl)ncn1` (stereo unspecified), with 0%; and `COc1ccccc1OP(C)(=O)Nc1ccccc1` (stereo unspecified), with -11.9%. Then `O=[N+]([O-])c1ccc2c(c1)C=Nc1ccccc1O2`, with -7.02%; and `C[As](=O)(O)c1cccc(C(=O)O)c1`, with -2.76%; and `O=[As](O)(c1ccc(O)cc1)c1ccccc1O`, with 4.07%. With `O=[N+]([O-])c1cc([N+](=O)[O-])c(Nc2cccnc2)c([N+](=O)[O-])c1`, the cell number change turned out to be 8.45%.

With `CCN(CC)C(=S)SC(NC=O)C(Cl)(Cl)Cl` (stereo unspecified), the cell number change was -6.9%.

For the compound `COc1ccccc1OP(C)(=O)Nc1cc(Cl)ccc1C` (stereo unspecified), the cell number change amounted to 16.3%. Then `Cc1ccc(NP(C)(=O)Oc2ccccc2)c(C)c1` (stereo unspecified), with 8.19%. With `CC(C)c1ccc(OP(=O)(Nc2ccccn2)Oc2ccccc2F)cc1` (stereo unspecified), the cell number change worked out at 9.18%. The figure for `CCOC(=O)c1ccc(NP(C)(=O)Oc2ccccc2)cc1` (stereo unspecified) is 0%; for `ClCCSc1nnc(-c2cccnc2)o1` it is -26.1%. For the compound `COc1cc(I)ccc1[As](=O)(O)O`, the cell number change was 16.4%. The figure for `Cc1cc(=O)[nH]c(N[N+](=O)[O-])n1` is 5.17%.

`Cc1c2c(nc3ccccc13)SC(C(Cl)Cl)C2` (stereo unspecified): the cell number change was -2.23%. As for `COc1ccc(N/C(=N/P(=O)(N2CCOCC2)N2CCOCC2)N2CCOCC2)cc1`, the cell number change was 9.94%.

`CCOC(=O)c1ccc(NP(C)(=O)Oc2cc(C)cc(C)c2)cc1` (stereo unspecified): the cell number change amounted to 0.986%.

In the case of `O=[As](O)(c1cccc(O)c1)c1cccc(O)c1`, the cell number change is -5.29%.

On to `O=[As](O)(O)c1cccnc1`, for which the cell number change was -3.57%. Then `COc1ccccc1OP(C)(=O)Nc1cccc(Br)c1` (stereo unspecified), with 5.78%; and `O=C(OC1CN2CCC1CC2)c1ccc(Cl)cc1` (stereo unspecified), with 17.9%; and `CCOP(=O)(Nc1cccc2ccccc12)OCC`, with 0%. With `CCCOP(=S)(Nc1nc(N)cc(=O)[nH]1)OCCC`, the cell number change came to 13%. In the case of `Nc1cccc2c([As](=O)(O)O)cccc12`, the cell number change was -11.5%. Then `O=C(O)COc1ccc([As](=O)(O)O)cc1[N+](=O)[O-]`, with 21.2%.

On to `Nc1ccccc1[As](=O)(O)c1ccccc1`, for which the cell number change was -2.69%. Then `O=P(Nc1nccs1)(c1ccccc1)c1nc2ccccc2s1` (stereo unspecified), with 13.5%; and `O=P(Nc1nccs1)(Oc1ccccc1)Oc1ccccc1`, with 1.5%. With `CCOP1(=S)c2c(C)nn(CCC#N)c2N=C(c2ccc(F)cc2)N1C` (stereo unspecified), the cell number change is -10.2%.

Consider `CN(C(=O)Cc1ccccc1)[C@@H]1CC[C@]2(CCCO2)C[C@H]1N1CCCC1`, for which the cell number change was -4.47%.

As for `NC(=O)Nc1ccc([As](=O)(O)O)cc1`, the cell number change amounted to 2.64%. Turning to `O=[N+]([O-])c1cc([N+](=O)[O-])c(Nc2nnnn2CCO)c([N+](=O)[O-])c1`, the cell number change came out at 1.15%. The figure for `CC1=C2N=C(C=C3N=C(C(C)=C4[N-][C@@](C)([C@@H]5N=C1[C@](C)(CCC(=O)NC[C@@H](C)OP(=O)([O-])O[C@H]1[C@@H](O)[C@@H](n6cnc7cc(C)c(C)cc76)O[C@@H]1CO)[C@H]5CC(N)=O)[C@@](C)(CC(N)=O)[C@@H]4CCC(N)=O)[C@@](C)(CC(N)=O)[C@@H]3CCC(N)=O)C(C)(C)[C@@H]2CCC(N)=O.[C-]#N.[Co+3]` is 7.77%. Then `CN(C)C1(CNC(=O)c2ccc(S(C)(=O)=O)cc2)CCCCC1`, with 7.29%. With `Cc1ccc(C(=O)OC2CN3CCC2CC3)cc1` (stereo unspecified), the cell number change was -4.15%. With `Nc1cccc([As](=O)(O)c2ccccc2)c1`, the cell number change worked out at 6.81%. As for `O=P1(Nc2ncccn2)COc2ccccc2OC1`, the cell number change was found to be 7.76%. Then `COc1ccccc1OP(C)(=O)Nc1c(C)cccc1C` (stereo unspecified), with 3.11%. Then `Clc1n[nH]nc1-c1nn[nH][15n]1`, with 2.63%; and `CCOP(=O)(Nc1ccc(C)cn1)OCC`, with -3.99%; and `CN(C(=O)Cc1ccc(Cl)c(Cl)c1)[C@@H]1CCCC[C@H]1N1CCCC1`, with -3.78%.
